Laboratory results: PMC4503440
These are yes or no findings as the source states them, for the method shown. Binding seen in cells or lysates may run through a third protein. A result given as binding can be weak or reduced; the word gives no strength. Tags and fused reporters may be left off the sequences shown.

Protein sequences, listed by entry. Tags and fused reporters are not part of them. Lines headed by an entry give the natural chain unless they say otherwise; changes in a name come on top.
UniProt Q15052: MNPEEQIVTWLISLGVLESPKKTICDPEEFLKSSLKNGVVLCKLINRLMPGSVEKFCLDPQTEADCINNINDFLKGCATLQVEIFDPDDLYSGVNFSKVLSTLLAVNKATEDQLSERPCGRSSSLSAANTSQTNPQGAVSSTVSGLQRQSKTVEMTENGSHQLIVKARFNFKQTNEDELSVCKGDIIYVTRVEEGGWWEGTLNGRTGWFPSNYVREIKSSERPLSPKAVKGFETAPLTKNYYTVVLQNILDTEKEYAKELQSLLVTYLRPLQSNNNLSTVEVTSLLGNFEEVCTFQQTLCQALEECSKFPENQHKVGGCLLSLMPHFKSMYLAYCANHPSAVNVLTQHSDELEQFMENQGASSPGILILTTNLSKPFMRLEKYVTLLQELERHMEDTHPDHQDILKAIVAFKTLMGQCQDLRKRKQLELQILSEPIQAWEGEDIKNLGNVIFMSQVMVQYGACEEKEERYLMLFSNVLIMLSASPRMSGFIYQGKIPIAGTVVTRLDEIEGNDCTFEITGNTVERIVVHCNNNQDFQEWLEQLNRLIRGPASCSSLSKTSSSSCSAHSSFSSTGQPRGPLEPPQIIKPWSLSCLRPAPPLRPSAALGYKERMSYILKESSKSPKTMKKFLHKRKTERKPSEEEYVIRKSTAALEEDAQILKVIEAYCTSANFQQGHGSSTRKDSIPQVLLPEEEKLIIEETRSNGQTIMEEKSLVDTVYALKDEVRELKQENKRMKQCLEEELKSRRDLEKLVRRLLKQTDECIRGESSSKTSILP

What was measured:
Assay in all cases: co-IP; transfected COS-7 cells; lysis in 150 mM Tris-HCl pH 8.0, 50 mM NaCl, 1 mM EDTA, 0.5% Nonidet P40; HA-αPIX precipitated on anti-HA agarose 2 h at 4°C; blot with anti-Cbl or anti-FLAG; in Fig 2A cells in 10% FBS or serum-starved and stimulated with 5 ng/ml EGF for 5-60 min
[1] = target: HA-tagged αPIX lacking the calponin homology domain (human) (UniProt Q15052)
[2] = target: HA-tagged αPIX lacking the SH3 domain (human) (UniProt Q15052)
[3] = target: HA-tagged αPIX lacking the coiled-coil domain (human) (UniProt Q15052)

Measured: binding

B1: Flag-tagged wild-type rat Git1 (protein, UniProt Q9Z272 1-770)
chain: MSRKGPRAEVCADCSAPDPGWASISRGVLVCDECCSVHRSLGRHISIVKHLRHSAWPPTLLQMVHTLASNGANSIWEHSLLDPAQVQSGRRKANPQDKVHPIKSEFIRAKYQMLAFVHKLPCRDDDGVTAKDLSKQLHSSVRTGNLETCLRLLSLGAQANFFHPEKGTTPLHVAAKAGQTLQAELLVVYGADPGSPDVNGRTPIDYARQAGHHELAERLVECQYELTDRLAFYLCGRKPDHKNGHYIIPQMADRSRQKCMSQSLDLSELAKAAKKKLQALSNRLFEELAMDVYDEVDRRENDAVWLATQNHSTLVTERSAVPFLPVNPEYSATRNQGRQKLARFNAREFATLIIDILSEAKRRQQGKSLSSPTDNLELSARNQSDLDDQHDYDSVASDEDTDQEPLPSAGATRNNRARSMDSSDLSDGAVTLQEYLELKKALATSEAKVQQLMKVNSSLSDELRKLQREIHKLQAENLQLRQPPGPVPVPSLPSERAEHTLMGPGGSTHRRDRQAFSMYEPGSALKPFGGAPGDELATRLQPFHSTELEDDAIYSVHVPAGLYRIRKGVSASSVTFTPSSPLLSSSQEGSRHASKLSRHGSGAESDYENTQSGEPLLGLEGKRFLELSKEDELHAELESLDGDPDPGLPSTEDVILKTEQVTKNIQELLRAAQEFKHDSFVPCSEKIHLAVTEMASLFPKRPALEPVRSSLRLLNASAYRLQSECRKTVPPEPGAPVDFQLLTQQVIQCAYDIAKAAKQLVTITTREKKQ
binds: all assays above

B2: Flag-tagged wild-type human GIT2 (protein, UniProt Q14161-1 1-759)
chain: MSKRLRSSEVCADCSGPDPSWASVNRGTFLCDECCSVHRSLGRHISQVRHLKHTPWPPTLLQMVETLYNNGANSIWEHSLLDPASIMSGRRKANPQDKVHPNKAEFIRAKYQMLAFVHRLPCRDDDSVTAKDLSKQLHSSVRTGNLETCLRLLSLGAQANFFHPEKGNTPLHVASKAGQILQAELLAVYGADPGTQDSSGKTPVDYARQGGHHELAERLVEIQYELTDRLAFYLCGRKPDHKNGQHFIIPQMADSSLDLSELAKAAKKKLQSLSNHLFEELAMDVYDEVDRRETDAVWLATQNHSALVTETTVVPFLPVNPEYSSTRNQGRQKLARFNAHEFATLVIDILSDAKRRQQGSSLSGSKDNVELILKTINNQHSVESQDNDQPDYDSVASDEDTDLETTASKTNRQKSLDSDLSDGPVTVQEFMEVKNALVASEAKIQQLMKVNNNLSDELRIMQKKLQTLQSENSNLRKQATTNVYQVQTGSEYTDTSNHSSLKRRPSARGSRPMSMYETGSGQKPYLPMGEASRPEESRMRLQPFPAHIGRSALVTSSSSLPSFPSTLSWSRDESARRASRLEKQNSTPESDYDNTPNDMEPDGMGSSRKGRQRSMVWPGDGLVPDTAEPHVAPSPTLPSTEDVIRKTEQITKNIQELLRAAQENKHDSYIPCSERIHVAVTEMAALFPKKPKSDMVRTSLRLLTSSAYRLQSECKKTLPGDPGSPTDVQLVTQQVIQCAYDIAKAAKQLVTITTKENNN
binds: all assays above
